{
  "sequences": {"note": "Chains of the proteins cited; added tags and fusions are not shown.", "UniProt O75874, whole entry R132H": "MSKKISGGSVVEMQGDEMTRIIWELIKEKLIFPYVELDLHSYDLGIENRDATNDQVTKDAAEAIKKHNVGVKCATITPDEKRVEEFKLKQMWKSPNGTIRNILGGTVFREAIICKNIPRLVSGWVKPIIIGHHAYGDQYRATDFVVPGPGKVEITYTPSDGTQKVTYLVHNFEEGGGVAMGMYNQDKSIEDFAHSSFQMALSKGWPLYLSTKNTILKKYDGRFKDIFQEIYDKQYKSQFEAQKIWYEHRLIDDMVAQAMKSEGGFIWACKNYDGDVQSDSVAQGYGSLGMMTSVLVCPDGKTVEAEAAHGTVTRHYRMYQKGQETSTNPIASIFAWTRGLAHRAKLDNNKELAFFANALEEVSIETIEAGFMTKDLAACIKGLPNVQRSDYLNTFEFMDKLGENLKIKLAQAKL"},
  "source": "patent US20130184222A1",
  "about": "“THERAPEUTICALLY ACTIVE COMPOSITIONS AND THEIR METHODS OF USE” (AGIOS PHARMACEUTICALS, INC, priority 2010, published 2013)",
  "key": {"IDH1 R132H": {"target": "IDH1 R132H (Homo sapiens, UniProt O75874, R132H)", "assay": "In vitro assay for IDH1 R132H inhibitors (NADPH/aKG, resazurin detection)", "conditions": "read-out: IC50, IDH1 R132H Inhibition; Table 4B; 0.2 μg/ml IDH1 R132H, 50 minutes at room temperature"}, "HT1080 cells": {"system": "HT1080 cells", "assay": "Cellular assay: inhibition of 2-HG production in HT1080 cells (LC-MS, 48 hours)", "conditions": "read-out: HT1080 IC50, Inhibition of 2-HG Production, 2-HG in media by LC-MS"}, "U87MG cells": {"system": "U87MG cells", "assay": "Cellular assay: inhibition of 2-HG production in U87MG cells (LC-MS, 48 hours)", "conditions": "read-out: U87MG IC50, Inhibition of 2-HG Production, 2-HG in media by LC-MS"}},
  "note": "pIC50: −log10 of the molar value. The match of structure and compound is tentative.",
  "data": [
    {"compound": "Cc1ccccc1C(C(=O)NC1CCCCC1)N(C(=O)Cn1ccnc1C)c1cccc(-c2cncnc2)c1", "note": "(stereo not drawn)", "values": [
      {"measurement": "pIC50", "setting": "IDH1 R132H", "result": "6.00 to 7.00"},
      {"measurement": "pIC50", "setting": "HT1080 cells", "result": "5.30 to 6.00"},
      {"measurement": "pIC50", "setting": "U87MG cells", "result": "> 6.60"}
    ]}
  ]
}
